Values from PubChem BioAssay AID686943 (Drosophila RNAi Screening Center, 2013).
In all, the deposit lists about 23,000 reagents; this is a random part of those that have a named target and a result. 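Extra replicates exist only for a retested subset of genes; insulin dose and duration not given; both raised and lowered dpERK matter.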 The numbers tell different reagents against one gene apart. Names joined by + are all predicted targets of the reagent. Not given: the amount of reagent, the time to read-out.

Assay: 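Search across the genome for regulators of signalling from receptor tyrosine kinase to ERK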 (primary screen)
Cells: Drosophila S2R+ haemocyte-like cells expressing YFP-tagged ERK (Rolled)
Reagents: long dsRNA against Drosophila genes
Treatment: insulin stimulation versus unstimulated cells; dose and duration not given
Measurement: 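Antibody staining for doubly phosphorylated ERK divided by ERK-YFP signal, as plate z-scores, in insulin-treated and untreated cells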
Scale: replicate 1, z-score of dpERK with insulin and replicate 2, z-score of dpERK with insulin: higher = more active ERK per ERK-YFP after insulin; replicate 1, z-score of dpERK under basal conditions: higher = more basal active ERK per ERK-YFP; replicate 1, z-score of ERK-YFP with insulin: higher = more YFP-tagged ERK signal

predicted target | reagent no. | replicate 1, z-score of dpERK with insulin | replicate 2, z-score of dpERK with insulin | replicate 1, z-score of dpERK under basal conditions | replicate 1, z-score of ERK-YFP with insulin
CG17169 | 1 | -0.23 | -0.51 | -0.43 | -0.39
phr | 1 | 1.1 | 0 | -1.24 | -0.08
Exn | 1 | -1.6 | -0.76 | -0.28 | 0.8
Exn | 2 | -0.08 | -0.46 | -0.54 | 0.23
CG9795 | 1 | 0.66 | 0.09 | 0.58 | 0
Lsm11 | 1 | 0.22 | -0.32 | 1.06 | -0.27
CG11912 | 1 | -0.08 | 0.7 | 0 | 1.57
CG10669 | 1 | 0.28 | 0.04 | -0.52 | -1.92
lncRNA:CR43451 | 1 | -0.33 | -0.02 | -0.63 | 0.33
CG5439 | 1 | -0.3 | 0.3 | -0.17 | 0.39
CG13204 | 1 | 0.81 | -0.13 | 0.51 | -0.55
Datp | 1 | -0.36 | 0.12 | -0.5 | 0.65
CARPA | 1 | 2.04 | 1.5 | 0.84 | 0.08
CARPA | 2 | -0.39 | 0 | -0.68 | 1.09
Naa30B | 1 | 0.03 | -0.03 | 0.06 | 0
Cyp28d1 | 1 | -0.19 | 0.66 | -0.67 | 0.02
Cyp28d1 | 2 | 0.59 | -1.89 | 2.16 | -0.02
CG12288 | 1 | -0.11 | 0.19 | -0.37 | -0.97
Ir54a + sub | 1 | -0.36 | 0.04 | 0.23 | 0.13
Dlip1 | 1 | 1.09 | 0.51 | 0.29 | 0.21
CG5567 | 1 | 0.84 | 0.49 | 1.23 | 0.16
hog | 1 | -0.77 | 0.19 | -0.12 | -0.3
Hpr1 | 1 | 1.07 | 0.38 | 2.52 | -3.49
CG32267 | 1 | 0.42 | 0.57 | 0.15 | 0.89
CG11127 | 1 | -1 | -0.4 | -1.29 | 0.86
RpS24 | 1 | -2.98 | -1.62 | -2.61 | -2.08
CG7970 | 1 | 0.69 | -0.14 | 0.61 | -0.99
CG43996 + CG43997 | 1 | -0.95 | 0.13 | -0.14 | 1.44
CG43996 + CG43997 | 2 | -0.1 | -0.26 | 0.02 | 0.33
CG14086 | 1 | 0.82 | 0.69 | -0.38 | 0.23
Ssrp | 1 | -3.13 | -4.11 | -3.63 | -0.38
CG30287 | 1 | -1.08 | -0.63 | 1.21 | 0.37
CG15465 | 1 | 0.35 | 0.33 | -0.27 | 0.16
CG15312 | 1 | 0.21 | 0.69 | -0.45 | -0.85
CG14102 | 1 | 1.53 | -0.19 | 0.77 | -0.01
CG15404 | 1 | 0.22 | 0.33 | 0.01 | -1.01
CG9861 | 1 | -0.04 | 0.47 | 0.26 | 0.43
BtbVII | 1 | -2.21 | 0.14 | 0.05 | 0.47
BtbVII | 2 | -0.82 | 2.48 | -0.26 | 1.26
Cox17 | 1 | 0.56 | 2.15 | 0.69 | -0.74
CG2889 | 1 | -0.15 | 1.22 | 1.46 | 0.22
CysRS | 1 | -0.49 | 0.17 | -1.78 | 0.42
CG10553 | 1 | -0.5 | -0.05 | 0.43 | 0.64
CG8314 | 1 | 0.26 | 0.27 | -0.46 | 0.85
CG1314 | 1 | -0.56 | 0.41 | 1.09 | 0.58
Ndc80 | 1 | 0.01 | -0.32 | 1.43 | -0.44
Ndc80 | 2 | 0.49 | -0.37 | -0.04 | -0.62
tst | 1 | -0.28 | -0.68 | -0.17 | 0
CG12539 | 1 | 0.22 | 1.17 | -0.27 | 0.01
Inx6 | 1 | -0.43 | -0.18 | 0.9 | 0.66
CG33286 | 1 | 0.74 | -0.57 | 0.32 | -0.09
CG32706 + CG6999 | 1 | -0.21 | -0.55 | -0.73 | -0.03
Nox | 1 | 1.34 | 0.64 | -0.24 | -0.2
Nox | 2 | -0.64 | -0.73 | 0.64 | -0.04
CG11369 | 1 | 0.26 | 0.51 | -0.85 | 0.46
CG31103 | 1 | -0.81 | 0.8 | -0.33 | -0.92
js | 1 | -0.12 | -0.13 | 0.75 | 0.51

Not a retest: an excerpt of the list.
predicted target | reagent no. | replicate 1, z-score of dpERK with insulin | replicate 2, z-score of dpERK with insulin | replicate 1, z-score of dpERK under basal conditions | replicate 1, z-score of ERK-YFP with insulin
phr | 1 | 1.1 | 0 | -1.24 | -0.08
Exn | 1 | -1.6 | -0.76 | -0.28 | 0.8
Exn | 2 | -0.08 | -0.46 | -0.54 | 0.23
CG9795 | 1 | 0.66 | 0.09 | 0.58 | 0
Lsm11 | 1 | 0.22 | -0.32 | 1.06 | -0.27
CG11912 | 1 | -0.08 | 0.7 | 0 | 1.57
